Article PMC12040169 (PLOS Biology, 2025)
The other results are listed elsewhere or left out.

Each molecule was assayed on T1, CTL2-GFP (C. trachomatis L2/434/Bu, GFP-expressing). Details: bulk GFP, single well; 28.5 h, 10 µM; inhibitor.
T1 construct: L2/434/Bu, GFP-expressing
Design: species or system HeLa; Intracellular C. trachomatis growth in HeLa cells, bulk GFP fluorescence relative to DMSO

SMILES	% of control remaining [%]
CC(=O)Nc1ccc(-c2cncc(Nc3ccc(C#N)cc3)n2)cc1 [CBK066009]	190.168
Cc1nc2cc(C(=O)N3CCc4[nH]c5ccccc5c4C3)ccc2n1C [CBK281842]	110.424
CCNC(=O)N1CC2(CCN(CC(=O)c3ccsc3)CC2)c2ccccc21 [CBK144601T]	109.748
CC(=O)N1C[C@@H]2CCCCN(CCc3ccc(F)cc3)[C@@H]2C1 [CBK285495]	79.3266
O=C(O)C[C@@H]1CCN(C(=O)C2CCCCC2)C[C@@H]1CC1=NCCc2ccccc21 [CBK289158]	131.645
CC1(C(=O)NC2CCN(Cc3cccc(F)c3)CC2)CCCO1 (stereo not drawn) [CBK282658]	130.454
COC(=O)CCc1ccc(-c2cnc(N)c(-c3ccc(O)cc3)n2)cc1 [CBK122809]	46.2637
CS(=O)(=O)N(Cc1ccccc1)c1ccc(C(=O)N2CCN(Cc3ccccc3)CC2)cc1 [CBK264134]	89.4791
CC(C)Oc1ccc(C(=O)C2=C(O)C(=O)N(CCN(C)C)C2c2ccncc2)cc1 (stereo not drawn) [CBK264907]	139.122
COc1cccc(C(=O)N2CCC(Cc3cccc(-c4cccs4)c3)(C(N)=O)CC2)c1 [CBK285781]	118.219
O=C(CCSc1ccc(Cl)cc1)NCCN1CCOCC1 [CBK269352]	116.675
COc1cc(F)cc(OC2CCNCC2)c1NC(=O)C1(c2ccccc2)CCCCC1 [CBK050241T]	101.209
O=C(Nc1cccnc1)c1cccnc1C(=O)O [CBK269663]	119.857
CCOC(=O)c1c(CSc2ccc(Cl)cc2)n(C)c2cc(Br)c(O)c(CN(C)C)c12 [CBK217489C]	105.626
Cc1ccc(-n2ncc3c2NC(=O)N2CCCN=C32)cc1 [CBK284416]	101.74
O=c1c(Cc2ccc(Cl)cc2)c(O)ccn1Cc1ccncc1 [CBK291161]	128.398
COc1cc(NC(=O)c2ccc3c(c2)C(=O)N(Cc2cccnc2)C3=O)c(C(=O)O)cc1OC [CBK266802]	129.778
O=C1COc2ccccc2C/C=C/CC2(CCN(C(=O)c3c[nH]cn3)CC2)C(=O)NCCN1 [CBK291990]	123.33
CCN(Cc1cncn1C)C(CC1CCCCC1)c1ccccc1 (stereo not drawn) [CBK066815T]	81.7845
c1csc(CN2CCC(n3cnc4cccnc43)CC2)c1 [CBK283968]	105.859
O=C(Nc1cccc2cc[nH]c12)c1cccc(F)c1Cl [CBK160074]	99.7764
Nc1nc(Cc2ccc(F)cc2)no1 [CBK028717]	111.927
CN1C[C@@H](C(=O)N(C)C)[C@@]2(CCc3ccccc3C(=O)N2)C1 [CBK284792]	124.477
N=c1c2c(-c3ccccc3)c(-c3ccccc3)n(Cc3ccccc3)c2ncn1CCN1CCOCC1 [CBK268537]	38.9264
O=C(Cn1ccnc1)NC(c1ccc(Cl)cc1)c1cccnc1 (stereo not drawn) [CBK281481]	120.488

SMILES	% of control remaining [%]
Cc1nn(Cc2ccc(Cl)cc2)c(C)c1NC(=O)CSc1nc(-c2ccc(F)cc2)cc(C(F)(F)F)n1 [CBK266160]	148.156
CN(C)c1ccc(CC(=O)NC2Cc3ccccc3C2)cc1 [CBK200360]	124.93
CCCNC(=O)c1cc(C2CCCN(Cc3ccc(F)cc3)C2)no1 (stereo not drawn) [CBK283387]	115.576
CC1(CNC(=O)c2ccccc2Cn2cccn2)COC1 [CBK281750]	152.161
O=C(CC(=O)Nc1c(Cl)cccc1C(F)(F)F)Nc1c(Cl)cccc1C(F)(F)F [CBK263148]	102.458
Cc1cc(/C=C2/NC(=S)NC2=O)c(C)n1-c1ccc(Sc2ccc([N+](=O)[O-])cc2)cc1 [CBK263883]	106.468
COc1ccc(C2(C)NC(=O)N(CC(=O)Nc3ccc(NC(C)=O)cc3)C2=O)cc1 (stereo not drawn) [CBK295182]	138.806
Cn1c(COc2ccccc2)nnc1SCc1nnc(-c2ccccc2)o1 [CBK269628]	133.295
Nc1ncc(-c2ccc(Cl)cc2)c(C2CCCN(C(=O)C3CCCC3)C2)n1 (stereo not drawn) [CBK285571]	141.249
CCCC(=O)NCCn1nc(-c2ccccc2F)cc1CN(C)C [CBK282000]	88.8705
COC(=O)c1c(NC(=S)Nc2ccc(CC(=O)O)cc2)sc(C)c1C [CBK267111]	182.605
CN(CC(=O)N1CCN(Cc2ccc3c(c2)OCO3)CC1)S(=O)(=O)c1ccc2ccccc2c1 [CBK267016]	119.07
NS(=O)(=O)c1ccc(Nc2c(C(=O)O)cc([N+](=O)[O-])cc2[N+](=O)[O-])cc1 [CBK261319]	108.982
Cn1c(SCC(=O)N2CCN(c3ccccc3)CC2)nnc1-c1cccc([N+](=O)[O-])c1 [CBK265209]	143.522
O=S(=O)(Nc1cccc(-c2cnco2)c1)c1ccc(Cl)c(Cl)c1 [CBK067117]	103.297
CCc1cc(C(=O)N2CCCC(c3cc4ccccc4cn3)C2)on1 (stereo not drawn) [CBK285156]	114.543
Cc1cc(NC(=O)c2ccc(S(=O)(=O)N(C)C)cc2)nc2c1c(=O)oc1ccccc12 [CBK291135]	110.462
O=C(/C=C/c1ccc(Cl)cc1Cl)NCCNc1c(Cl)cccc1[N+](=O)[O-] [CBK264295]	110.963
COc1ccc(C(=O)NNC(=O)/C=C/c2ccc(C(C)C)cc2)cc1 [CBK261697]	19.4008
N#Cc1ccc(NC(=O)c2ccc(-n3cnnc3)cc2Cl)cc1 [CBK269758]	126.602
Cc1cc(S)n2nc(C)c(-c3ccccc3)c2n1 [CBK288423]	98.6111
COc1ccc(C(=O)c2c(N)c(C(=O)Nc3ccccc3)c3ccccn23)cc1 [CBK300509]	169.538
CCCc1cc(C(=O)N2CCNCC2C(=O)N2CCN(C)CC2)ccn1 (stereo not drawn) [CBK307619]	116.478
Cc1noc2nc(-c3ccccc3F)cc(C(=O)N3CCCC3c3nnc4ccccn34)c12 (stereo not drawn) [CBK296756]	135.657
COc1cncc(-c2cc(Nc3ccc(O)cc3C)ncn2)c1 [CBK091061]	102.175

A draw from above in order of number of heavy atoms, ascending:
SMILES	% of control remaining [%]
N#Cc1ccc(NC(=O)c2ccc(-n3cnnc3)cc2Cl)cc1 [CBK269758]	126.602
COc1ccc(C(=O)NNC(=O)/C=C/c2ccc(C(C)C)cc2)cc1 [CBK261697]	19.4008
NS(=O)(=O)c1ccc(Nc2c(C(=O)O)cc([N+](=O)[O-])cc2[N+](=O)[O-])cc1 [CBK261319]	108.982
Nc1ncc(-c2ccc(Cl)cc2)c(C2CCCN(C(=O)C3CCCC3)C2)n1 (stereo not drawn) [CBK285571]	141.249

Carrying on:

SMILES	% of control remaining [%]
Cn1ccnc1CN1CCC2(CC1)CC(C(=O)O)N(C(=O)C1CC1)C2 (stereo not drawn) [CBK306986]	106.814
O=C(c1cc(-c2ccccc2)n[nH]c1=O)N1CCc2ccccc2C1 [CBK291216]	128.929
O=C(O)c1ccc2c(c1)C(=O)N(c1nc(-c3cccnc3)n[nH]1)C2=O [CBK268284]	110.844
N=c1c2c3c(sc2ncn1CCCN1CCOCC1)CCCC3 [CBK268323]	112.774
Cc1ccc(S(=O)(=O)Nc2ccc3c(c2)CC(=O)N3)cc1 [CBK287657]	110.518
O=C(Nc1cc(Oc2cccnc2)cc([N+](=O)[O-])c1)c1sc2ccccc2c1Cl [CBK300485]	114.597
Cc1ccc(S(=O)(=O)c2ccccc2)cc1S(=O)(=O)NCc1ccncc1 [CBK270073]	91.4167
COc1ccc(C(=O)Nc2nc3ccc(S(N)(=O)=O)cc3s2)cc1 [CBK291147]	108.957
CC(C)(C)C1=CC2=NC3(CCS(=O)(=O)CC3)[C@@H]3C[C@@H](O)[C@@H](O)[C@@H]3N2O1 [CBK303247]	128.382
Cc1nnc(CN(CC2CCCO2)C2CCC(C)CC2)n1C (stereo not drawn) [CBK305548]	150.061
COc1cccc(NC(=O)c2ccc(-c3cc(C(F)(F)F)cc(C(F)(F)F)c3)nc2N(C)C)c1 [CBK106028]	79.3263
CCc1nc2c(OCc3ccccc3)cccn2c1N(C)C(=O)Nc1ccccc1OC [CBK147890]	150.948
Cc1ccc(NC(=O)COc2ccccc2)c(NC(=O)c2ccco2)c1 [CBK266809]	109.587
CN1CCN(C(=O)c2[nH]c3ccccc3c2NS(=O)(=O)Cc2ccccc2)CC1 [CBK050046]	92.6975
Cc1cccnc1NC(=O)COc1ccc(Cl)cc1 [CBK262175]	78.8723
COc1ccc(Br)cc1S(=O)(=O)n1ccnc1C [CBK264003]	128.215
Cc1c(C(=O)N2CCC(N3CCSCC3)CC2)[nH]c2c(F)cccc12 [CBK307065]	148.917
CCOc1ccc(NC(=O)C2C3C=CC(O3)C2C(=O)O)cc1 (stereo not drawn) [CBK261592]	104.205
Cc1cccc(C)c1OCC(=O)Nc1cccc(Oc2ccc3c(c2)C(=O)N(c2ccccc2)C3=O)c1 [CBK265499]	110.467
O=C(Nc1ccccc1N1CCN(C(=O)c2ccc(Cl)cc2)CC1)c1ccc(-c2cccc([N+](=O)[O-])c2)o1 [CBK266398]	146.516
N#Cc1cccc(C(=O)N2CCCC3(CCN(C(=O)Cc4c[nH]c5ccccc45)C3)C2)c1 (stereo not drawn) [CBK131581]	116.135
Cc1ccc(CNC(=O)OCCN2CCN(C)CC2)o1 [CBK200205]	154.412
Cc1nn(CC(=O)N(C)Cc2cnn(C)c2)c(=O)c2ccccc12 [CBK305701]	156.478
CCCn1cnc2cc(NC(=O)Cn3cccc(C(=O)NC4CCCCC4)c3=O)ccc21 [CBK286075]	118.895
Cc1cc(/C=N/O)c(C)c(COCc2cc(C)cc(/C=N/O)c2C)c1 [CBK261770]	115.873

Given in markdown: entries from further up.

| SMILES | % of control remaining [%] |
| --- | --- |
| Cc1ccc(S(=O)(=O)c2ccccc2)cc1S(=O)(=O)NCc1ccncc1 [CBK270073] | 91.4167 |
| COc1ccc(C(=O)Nc2nc3ccc(S(N)(=O)=O)cc3s2)cc1 [CBK291147] | 108.957 |
